Primary screen of a compound library

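Whole-parasite assay of Trypanosoma brucei over 72 hours; the read-out is not stated. Concentration: 30 µM. Direction is inferred from retests: higher values go with stronger inhibition. Values scatter widely below zero; nearly all retest evidence comes from the higher of the two concentrations used. Of about 64,000 compounds tested this way, about 940 (1.5%) reached 50% or more in at least one test.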

Each number is a percent effect as filed. The record does not define 0% and 100%; most values in the screen are far below 50% and negative numbers occur (in some assays of this library far below -100). Compounds were drawn at random from those tested, without regard to their results.

{"compound": "NC(=O)C1(CNC(=O)CCc2ccc(Cl)s2)CCOCC1", "effect": 4.341}
{"compound": "CCN1CCC2(C1)CN(S(=O)(=O)c1cn(C)cn1)C2.O=C(O)C(F)(F)F.O=C(O)C(F)(F)F", "effect": -6.671}
{"compound": "CC(=O)N1CCC(C(=O)NCCN2CCC(C)CC2)CC1", "effect": 4.794}
{"compound": "Cc1noc(C)c1-c1cncc(C2CCCN2Cc2ncccc2F)n1", "stereo": "stereo not shown", "effect": 12.12}
{"compound": "Cc1c(OCC(=O)NCc2ccccc2Cl)c(=O)ccn1C", "effect": -32.62}
{"compound": "O=C(c1ccc(C2CCNC2)cc1)N1CCC(N2CCC(O)CC2)CC1", "stereo": "stereo not shown", "effect": -21.25}
{"compound": "CC[C@@H]1N(Cc2ccc(C)s2)CCC[C@]12CCC(=O)N2C.O=C(O)C(F)(F)F", "effect": -19.55}
{"compound": "C[S+]([O-])c1nncn1CC(=O)c1ccc(Br)cc1", "stereo": "stereo not shown", "effect": -23.94}
{"compound": "CCOCC(=O)N1CCC(Oc2ccc(Cl)cn2)CC1", "effect": 23.33}
{"compound": "COc1ccc(-c2nc(CNC(C)Cn3cccn3)cs2)cc1", "stereo": "stereo not shown", "effect": 0.4227}
{"compound": "CCN(C)C(=O)NCC1(CN2CCOCC2)CCCCC1", "effect": 0.1071}
{"compound": "N#Cc1cc(NC(=O)c2cc[nH]n2)ccc1N1CCC(O)CC1", "effect": -53.09}
{"compound": "[H][C@@]12CCN(Cc3ccco3)C[C@@]1([H])[C@H](C(=O)NC1CC1)CCO2", "effect": -258}
{"compound": "N#Cc1cccn(CCOc2ccc(Cl)cc2)c1=O", "effect": -56.13}
{"compound": "O=C(Nc1ccc(=O)n(Cc2ccccc2Cl)c1)C1CC1", "effect": -5.832}
{"compound": "OC1(CNc2cc(C(F)(F)F)nc3ccccc23)CCOCC1", "effect": -10.12}
{"compound": "Cc1ccc(OCC(O)Cn2ncc3cnn(C)c(=O)c32)cc1", "stereo": "stereo not shown", "effect": 3.299}
{"compound": "Fc1ccc(-c2nc(CNC3CCc4ncnn4C3)co2)cc1", "stereo": "stereo not shown", "effect": 6.964}
{"compound": "Cn1cc(CCCNS(=O)(=O)N2CCCC2c2ccco2)cn1", "stereo": "stereo not shown", "effect": -8.599}
{"compound": "CCN(CC)c1ccc(NS(=O)(=O)c2cnn(C)c2)cn1", "effect": -23.19}
{"compound": "CC(CN(C)Cc1cccc(-n2cccn2)c1)C(F)(F)F", "stereo": "stereo not shown", "effect": -69.63}
{"compound": "Cn1cc(NC(=O)c2cccc(Cl)c2)c(=O)n(C)c1=O", "effect": -85.67}
{"compound": "COCc1nc2cc(NCc3ncc[nH]3)ccc2o1", "effect": -26.71}
{"compound": "Cc1cc(CN2CCN(C(=O)c3sccc3C(C)C)CC2)no1", "effect": 0.3632}
{"compound": "COC(=O)c1ccc(Cn2cnc(C#N)n2)cc1", "effect": -47.29}
{"compound": "CCNC(=O)Nc1c(C)cnn1Cc1cc(F)ccc1F", "effect": -14.6}
{"compound": "COc1ccc(C(C(=O)O)N(C)CCN2CCCC2)c(C)c1", "stereo": "stereo not shown", "effect": -37.22}
{"compound": "Cc1cnn(CCNC(C)C(=O)NCCc2cccs2)c1", "stereo": "stereo not shown", "effect": -98.18}
{"compound": "CCOCC1CN(C(=O)Cc2ccccn2)Cc2cnn(CC)c21", "stereo": "stereo not shown", "effect": -25.48}

Some entries from above, unchanged:

CC[C@@H]1N(Cc2ccc(C)s2)CCC[C@]12CCC(=O)N2C.O=C(O)C(F)(F)F gave -19.55%.
C[S+]([O-])c1nncn1CC(=O)c1ccc(Br)cc1 (stereo not shown) gave -23.94%.

Data taken from ChEMBL document CHEMBL3988442, “University of Dundee, Small-Polar-MMV Screening Library” (2021).